# Laboratory results published in publication PMC6323126.
# Chains of the proteins cited; added tags and fusions are not shown. Lines headed by an entry give the natural chain unless they say otherwise; changes in a name come on top.
# UniProt Q14BN4: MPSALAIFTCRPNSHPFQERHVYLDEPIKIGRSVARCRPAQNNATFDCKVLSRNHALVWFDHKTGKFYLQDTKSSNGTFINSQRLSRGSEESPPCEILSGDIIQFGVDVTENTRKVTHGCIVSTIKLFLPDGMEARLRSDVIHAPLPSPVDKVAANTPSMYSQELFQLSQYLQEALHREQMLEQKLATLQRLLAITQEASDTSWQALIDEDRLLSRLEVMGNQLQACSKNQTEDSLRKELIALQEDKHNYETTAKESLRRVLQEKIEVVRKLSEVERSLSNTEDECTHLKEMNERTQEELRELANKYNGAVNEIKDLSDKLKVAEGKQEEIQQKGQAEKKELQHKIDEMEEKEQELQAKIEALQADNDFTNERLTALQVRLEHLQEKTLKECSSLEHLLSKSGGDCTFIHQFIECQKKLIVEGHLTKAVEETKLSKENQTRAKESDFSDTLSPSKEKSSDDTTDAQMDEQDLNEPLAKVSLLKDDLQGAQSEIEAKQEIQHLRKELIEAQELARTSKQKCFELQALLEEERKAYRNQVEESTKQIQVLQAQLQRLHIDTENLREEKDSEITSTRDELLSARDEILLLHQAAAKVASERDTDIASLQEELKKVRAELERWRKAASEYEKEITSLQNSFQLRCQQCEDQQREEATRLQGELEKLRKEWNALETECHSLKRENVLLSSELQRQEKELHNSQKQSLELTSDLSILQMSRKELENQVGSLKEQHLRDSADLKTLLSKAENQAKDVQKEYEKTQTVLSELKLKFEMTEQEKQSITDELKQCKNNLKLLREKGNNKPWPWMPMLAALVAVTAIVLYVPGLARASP
# B1: SIKE1 (recombinant, limits not stated) (protein, UniProt Q9BRV8 1-207)
# chain: MSCTIEKILTDAKTLLERLREHDAAAESLVDQSAALHRRVAAMREAGTALPDQYQEDASDMKDMSKYKPHILLSQENTQIRDLQQENRELWISLEEHQDALELIMSKYRKQMLQLMVAKKAVDAEPVLKAHQSHSAEIESQIDRICEMGEVMRKAVQVDDDQFCKIQEKLAQLELENKELRELLSISSESLQARKENSMDTASQAIK
# Biological target: first coiled-coil (CC1) of SLMAP (recombinant, Fig. 7d) (human) (UniProt Q14BN4)
# Experiment: pull-down; MBP pulldown: MBP-tagged protein, partner and amylose resin mixed at 4 °C for 1 h in 20 mM HEPES (pH 7.5), 100 mM NaCl; eluted with 20 mM maltose; SDS-PAGE, Coomassie staining; both purified
binder,measurement,value
B1,binding,binds

# No constants are given. Whether binding was seen depends on the method and setting. Binding can be weak; no strength is given.
